Measured values: patent US20220313819A1, “COMBINATION THERAPY FOR THE TREATMENT OF SOLID AND HEMATOLOGICAL CANCERS” (Arch Oncology, Inc., priority 2019, published 2022)
Substitutions are numbered along the chain they refer to. No constants are given. Whether binding was seen depends on the method and setting. Some entries that bind do so weakly or less than the wild type.

Sequences of proteins named here, by UniProt entry; tags and fusion partners are left off. A change or cut given only in a name is not applied to a line headed by its entry.
UniProt Q08722: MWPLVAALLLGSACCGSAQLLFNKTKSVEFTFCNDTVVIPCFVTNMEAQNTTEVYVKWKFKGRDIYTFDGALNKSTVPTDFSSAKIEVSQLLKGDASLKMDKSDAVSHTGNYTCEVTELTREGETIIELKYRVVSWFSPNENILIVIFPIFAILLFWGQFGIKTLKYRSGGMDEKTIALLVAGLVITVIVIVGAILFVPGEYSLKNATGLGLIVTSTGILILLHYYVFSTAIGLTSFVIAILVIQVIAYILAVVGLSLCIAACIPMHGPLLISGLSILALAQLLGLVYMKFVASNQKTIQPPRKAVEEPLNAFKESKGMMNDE

B1: VLX8hum_06 IgG2 (antibody, V domains shown)
VH: QVQLVQSGAEVKKPGASVKVSCKASGYSFTNYYIHWVRQAPGQGLEWMGYIDPLNGDTTYNQKFKGRVTMTRDTSTSTVYMELSSLRSEDTAVYYCARGGKRAMDYWGQGTLVTVSS
VL: DIQMTQSPSSLSASVGDRVTITCRASQSISNYLNWYQQKPGKAPKLLIYYTSRLYSGVPSRFSGSGSGTDFTLTISSLQPEDFATYYCQQGNTLPWTFGQGTKVEIKR
B2: VLX8hum_07 IgG2 (antibody, V domains shown)
VH: B1 VH with A16S, M70I, R72A, T74E, V79A
VL: B1 VL
B3: VLX8hum_08 IgG2 (antibody, V domains shown)
VH: EVQLVQSGAEVKKPGESLKISCKGSGYSFTNYYIHWVRQMPGKGLEWMGYIDPLNGDTTYNQKFKGQVTISADKSISTAYLQWSSLKASDTAMYYCARGGKRAMDYWGQGTLVTVSS
VL: B1 VL
B4: VLX8hum_09 IgG2 (antibody, V domains shown)
VH: B1 VH with A16S, N61A, K65Q, M70I, R72A, T74E, V79A
VL: B1 VL

Target: human CD47 (human) (UniProt Q08722)
Assay: cell-based ELISA on OV10 cells expressing human CD47 (OV10 hCD47), HRP-labelled secondary antibody, OD 450

binding, binds:
B1
B2
B3
B4

Target: human CD47 (human) (UniProt Q08722)
Assay: flow cytometry, human RBCs

binding, binds:
B1
B2
B3
B4

Target: human CD47 (human) (UniProt Q08722)
Assay: flow cytometry on freshly isolated human RBCs, FITC-labelled donkey anti-human antibody, MFI

binding, binds:
B1
B2
B3
B4

Target: human CD47 (human) (UniProt Q08722)
Assay: cell ELISA, OV10 hCD47 cells

binding, binds:
B1
B2
B3
B4
